Binding data for eight molecules are collected here from article PMC12465037, “Defective targeting of PNPLA1 to lipid droplets causes ichthyosis in ABHD5-syndromic epidermal differentiation disorder” (Journal of Lipid Research, 2025).

The labels stand for the following.
T1: FLAG-tagged human PNPLA1 (patatin-like phospholipase domain-containing 1), from pFLAG-CMV-hsPNPLA1 (human) (UniProt Q8N8W4)
T1 sequence: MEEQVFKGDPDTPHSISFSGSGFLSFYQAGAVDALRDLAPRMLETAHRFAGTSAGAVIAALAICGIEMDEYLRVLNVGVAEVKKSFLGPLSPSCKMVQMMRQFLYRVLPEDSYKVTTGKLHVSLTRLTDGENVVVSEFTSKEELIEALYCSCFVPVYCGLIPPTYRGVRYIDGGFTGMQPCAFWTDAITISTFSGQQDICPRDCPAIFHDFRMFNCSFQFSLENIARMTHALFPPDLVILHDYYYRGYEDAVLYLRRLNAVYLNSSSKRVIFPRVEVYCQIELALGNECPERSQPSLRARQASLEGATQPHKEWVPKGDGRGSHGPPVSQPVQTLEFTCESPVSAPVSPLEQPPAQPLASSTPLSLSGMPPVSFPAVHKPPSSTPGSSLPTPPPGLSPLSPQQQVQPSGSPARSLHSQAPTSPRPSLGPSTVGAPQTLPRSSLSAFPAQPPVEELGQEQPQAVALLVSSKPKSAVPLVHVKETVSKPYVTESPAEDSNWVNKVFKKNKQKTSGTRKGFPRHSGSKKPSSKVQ

T2: 3xFLAG-tagged full-length human PNPLA1, partially purified (pcDNA4/HisMaxC-mut-3xFLAG-hsPNPLA1) (human) (UniProt Q8N8W4)
T2 sequence: T1 sequence

T3: human PLIN2 (perilipin 2), partially purified (pcDNA4/HisMaxC-mut-hsPLIN2) (human) (UniProt Q99541)
T3 sequence: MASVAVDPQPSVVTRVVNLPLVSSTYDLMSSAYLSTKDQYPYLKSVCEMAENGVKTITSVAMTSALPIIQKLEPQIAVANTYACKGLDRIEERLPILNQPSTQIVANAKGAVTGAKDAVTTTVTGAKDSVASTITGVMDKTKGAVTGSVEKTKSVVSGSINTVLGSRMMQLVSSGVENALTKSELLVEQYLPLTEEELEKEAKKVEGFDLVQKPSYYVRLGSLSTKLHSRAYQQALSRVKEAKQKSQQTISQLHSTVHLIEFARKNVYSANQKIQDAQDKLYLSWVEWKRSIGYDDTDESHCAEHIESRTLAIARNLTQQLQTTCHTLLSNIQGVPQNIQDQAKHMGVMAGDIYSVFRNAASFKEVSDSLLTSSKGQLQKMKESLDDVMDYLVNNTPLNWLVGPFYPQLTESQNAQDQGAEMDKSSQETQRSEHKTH

T4: human PLIN3 (perilipin 3), partially purified (pcDNA4/HisMaxC-mut-hsPLIN3) (human) (UniProt O60664)
T4 sequence: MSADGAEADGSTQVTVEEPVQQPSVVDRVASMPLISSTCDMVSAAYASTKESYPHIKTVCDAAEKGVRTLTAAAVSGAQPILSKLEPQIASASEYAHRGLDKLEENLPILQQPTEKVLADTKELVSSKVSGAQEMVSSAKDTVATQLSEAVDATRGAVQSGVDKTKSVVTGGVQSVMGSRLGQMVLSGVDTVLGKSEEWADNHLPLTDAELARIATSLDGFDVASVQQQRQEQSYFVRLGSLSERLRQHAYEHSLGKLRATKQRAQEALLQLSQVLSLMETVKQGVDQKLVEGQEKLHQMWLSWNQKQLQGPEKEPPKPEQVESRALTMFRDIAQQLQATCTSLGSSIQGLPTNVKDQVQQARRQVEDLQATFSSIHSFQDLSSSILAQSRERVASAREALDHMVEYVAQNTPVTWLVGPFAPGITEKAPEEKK

B1: Xpress-tagged wild-type human ABHD5 (α/β-hydrolase domain-containing 5) (protein, UniProt Q8WTS1 1-349)
chain: MAAEEEEVDSADTGERSGWLTGWLPTWCPTSISHLKEAEEKMLKCVPCTYKKEPVRISNGNKIWTLKFSHNISNKTPLVLLHGFGGGLGLWALNFGDLCTNRPVYAFDLLGFGRSSRPRFDSDAEEVENQFVESIEEWRCALGLDKMILLGHNLGGFLAAAYSLKYPSRVNHLILVEPWGFPERPDLADQDRPIPVWIRALGAALTPFNPLAGLRIAGPFGLSLVQRLRPDFKRKYSSMFEDDTVTEYIYHCNVQTPSGETAFKNMTIPYGWAKRPMLQRIGKMHPDIPVSVIFGARSCIDGNSGTSIQSLRPHSYVKTIAILGAGHYVYADQPEEFNQKVKEICDTVD
B2: Xpress-tagged human ABHD5 p.H251P (protein, UniProt Q8WTS1 1-349)
chain: B1 chain with H251P
B3: Xpress-tagged human ABHD5 p.G271R (natural protein, UniProt Q8WTS1 1-349, looked up)
chain: B1 chain with G271R
notes: human ABHD5, full-length open reading frame of NM_016006.6 with the patient mutation p.G271R; Disease-associated (ABHD5-sEDD) missense variant made by site-directed mutagenesis; source: HEK293T, transfected (pcDNA4/HisMaxC), in lysate
B4: Xpress-tagged human ABHD5 p.H82R (natural protein, UniProt Q8WTS1 1-349, looked up)
chain: B1 chain with H82R
notes: human ABHD5, full-length open reading frame of NM_016006.6 with the patient mutation p.H82R; Disease-associated (ABHD5-sEDD) missense variant made by site-directed mutagenesis; source: HEK293T, transfected (pcDNA4/HisMaxC), in lysate
B5: Xpress-tagged human ABHD5 p.Q130P (natural protein, UniProt Q8WTS1 1-349, looked up)
chain: B1 chain with Q130P
notes: human ABHD5, full-length open reading frame of NM_016006.6 with the patient mutation p.Q130P; Disease-associated (ABHD5-sEDD) missense variant made by site-directed mutagenesis; source: HEK293T, transfected (pcDNA4/HisMaxC), in lysate
B6: Xpress-tagged human ABHD5 p.E260K (natural protein, UniProt Q8WTS1 1-349, looked up)
chain: B1 chain with E260K
notes: human ABHD5, full-length open reading frame of NM_016006.6 with the patient mutation p.E260K; Disease-associated (ABHD5-sEDD) missense variant made by site-directed mutagenesis; source: HEK293T, transfected (pcDNA4/HisMaxC), in lysate
B7: Xpress-tagged human ABHD5 p.S115G (natural protein, UniProt Q8WTS1 1-349, looked up)
chain: B1 chain with S115G
notes: human ABHD5, full-length open reading frame of NM_016006.6 with the patient mutation p.S115G; Disease-associated (ABHD5-sEDD) missense variant made by site-directed mutagenesis; source: HEK293T, transfected (pcDNA4/HisMaxC), in lysate
B8: Xpress-tagged human ABHD5 p.R297N (natural protein, UniProt Q8WTS1 1-349, looked up)
chain: B1 chain with R297N
notes: human ABHD5, full-length open reading frame of NM_016006.6 with the patient mutation p.R297N; Disease-associated (ABHD5-sEDD) missense variant made by site-directed mutagenesis; source: HEK293T, transfected (pcDNA4/HisMaxC), in lysate

Where a chain is given by its changes, count along the chain named. Names and notes keep the numbering of the source. These are yes or no findings as the source states them, for the method shown. For some of these results: In cells and extracts the contact can be indirect. Some binding calls cover weakened binding; strength is not graded here. Where a sequence is shown, tags or fusion partners need not be part of it.

The target in one assay is T1, FLAG-tagged human PNPLA1 (patatin-like phospholipase domain-containing 1), from pFLAG-CMV-hsPNPLA1 (human). In words: co-IP; HEK293T co-transfected with FLAG-PNPLA1 and Xpress-tagged ABHD5 variants; lysis in 50 mM Tris/HCl pH 7.4, 150 mM NaCl, 1 mM EDTA, 1% NP-40; 1 mg lysate with anti-FLAG M2-agarose overnight at 4°C; eight washes; immunoblot.
B1: the binding entry is given as “binds”.
As to B2, the binding entry is recorded as “binds”.
Turning to B3, the binding entry was “binds”.
With B4, the binding result was “binds”.
In the case of B5, the binding entry is given as “binds”.
In the case of B6, the binding result is “binds”.
Same read-out and setting: the same measure for B7: “binds”.
With B8, the binding entry was “binds”.

For a further assay, the target named is T2, 3xFLAG-tagged full-length human PNPLA1, partially purified (pcDNA4/HisMaxC-mut-3xFLAG-hsPNPLA1) (human). Kind of assay: ELISA; solid-phase interaction assay: 1.8 μg/well of purified 3xFLAG-PNPLA1, PLIN2 or PLIN3 coated on MaxiSorp plates (50 mM Tris-HCl pH 8.0, 200 mM NaCl); 40 μg HEK293T lysate with Xpress-tagged ABHD5 variants in TBS with 2% BSA and 0.05% Tween 20, overnight at 4°C; anti-Xpress and HRP secondary antibody, TMB, absorbance at 620 nm, background subtracted and normalised to expression; only the target purified.
Take B1: the binding result is on record as “binds”.
Take B2: the binding result was “binds”.

The next assay deals with T3, human PLIN2 (perilipin 2), partially purified (pcDNA4/HisMaxC-mut-hsPLIN2) (human). The description is as above.
For B1, the binding entry is “binds”.
For B2, the binding result is “binds”.
Same read-out and setting: the value for B4 was “binds”; that for B5 was “binds”; that for B6 was “binds”.
On to B7, for which the binding entry is “binds”.

The target in the next assay is T4, human PLIN3 (perilipin 3), partially purified (pcDNA4/HisMaxC-mut-hsPLIN3) (human). The assay is described as above.
For the molecule B1, the binding entry is reported as “binds”.
Turning to B2, the binding entry is “binds”.
For B4, the binding entry was “binds”.
Regarding B5, the binding result is recorded as “binds”.
As to B6, the binding result is “binds”.
With B7, the binding result is on record as “binds”.
